# Source: article PMC7819943, “Rice protein-binding microarrays: a tool to detect cis-acting elements near promoter regions in rice”
# The other results are listed elsewhere or left out.
# Biological target: T1, OsSMF1 (Oryza sativa, UniProt Q6ZLB0 1-436)
# T1 sequence: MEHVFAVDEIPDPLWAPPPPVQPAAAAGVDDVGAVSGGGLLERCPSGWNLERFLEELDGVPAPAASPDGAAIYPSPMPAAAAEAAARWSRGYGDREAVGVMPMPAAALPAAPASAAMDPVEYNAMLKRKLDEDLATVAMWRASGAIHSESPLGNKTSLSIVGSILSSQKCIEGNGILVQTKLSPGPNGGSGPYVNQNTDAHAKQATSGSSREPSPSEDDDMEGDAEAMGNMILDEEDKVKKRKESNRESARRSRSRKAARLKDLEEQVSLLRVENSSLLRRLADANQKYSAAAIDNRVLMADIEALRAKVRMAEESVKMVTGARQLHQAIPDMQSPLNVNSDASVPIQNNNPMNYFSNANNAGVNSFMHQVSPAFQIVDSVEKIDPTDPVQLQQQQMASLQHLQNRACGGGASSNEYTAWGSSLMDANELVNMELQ
# Assay: protein-binding microarray (RPBM); PBS, 2% BSA, 51.3 ng/ul salmon testes DNA, 50 uM zinc acetate, 200 nM TF, 25 C, 1 h; high values mean tight binding
# Details: protein: recombinant; tags: N-terminal polyhistidine and DsRed monomer fusion (pET32a); chain copies: 2; label: CyDye5-dUTP incorporated in the synthesized complementary strand; 3' TTTTT single-stranded linker to array surface; dsDNA, one strand shown
# Method in brief: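 In PBS with 2% BSA, salmon testes DNA and 50 µM zinc acetate, 200 nM protein was incubated on a custom Agilent array at 25 °C for 1 h and then washed off. The array had been made double-stranded by primer extension with Cy5-dUTP and blocked with 2% BSA. The proteins were transcription factors fused N-terminally to polyhistidine and DsRed, expressed in E. coli BL21-CodonPlus and purified on Ni–NTA. The binding signal is per-feature fluorescence intensity (arbitrary units) from an Axon 4000B scanner.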
row,Sequence,binding signal
1,ATAGTACTTGTGTTTGATTTCGATTGAAGCCTATTCATTGCGGAGTCACCTAGTGCAG,3210 fluorescence intensity (a.u.)
2,GCCGACGAGAGGGAGCCGAAGGTCGACGTCGTGGCGACGCCGGAGTCACCTAGTGCAG,3930 fluorescence intensity (a.u.)
3,GAGTATACGTTCCGATTCCATTTTCGAGAAAATAAAATGACGGAGTCACCTAGTGCAG,11400 fluorescence intensity (a.u.)
4,CTTAGTGGTGGGTATAATATCTCGTCAGCTTCGCGCAAGCCGGAGTCACCTAGTGCAG,5410 fluorescence intensity (a.u.)
5,GGCAACAAGCTCCTACGCCGATGAGGTGGCCCAGCTTGTCCGGAGTCACCTAGTGCAG,3380 fluorescence intensity (a.u.)
6,GATTCGTTTGTGCACGGCCCAACGTGTCACGGAGCCCATTCGGAGTCACCTAGTGCAG,12800 fluorescence intensity (a.u.)
7,GCCAAGATTACGTGCAGCTGAACAAGTCCAGGTACACTTACGGAGTCACCTAGTGCAG,4310 fluorescence intensity (a.u.)
8,CGTGCGTACGTGATACTAGTGCGGTGGCGATCGAGCCACGCGGAGTCACCTAGTGCAG,3700 fluorescence intensity (a.u.)
9,CACCCCTAACCCAAAGACCAAGAAAATAATTATTATCATCCGGAGTCACCTAGTGCAG,3350 fluorescence intensity (a.u.)
10,AAATCATGAAAATAACATAGTTCTTCAAATAGATGGTAGACGGAGTCACCTAGTGCAG,3250 fluorescence intensity (a.u.)
11,ACACTATTAATTGTTTTATTAGGTTTCAGACGTTATTTTGCGGAGTCACCTAGTGCAG,3150 fluorescence intensity (a.u.)
12,AAGCCACGGTTCCATACCAATAAATACTACTACTACGTTTCGGAGTCACCTAGTGCAG,3250 fluorescence intensity (a.u.)
13,AATGTTTGACGTGTAACATATCCAATATTAAAGTTTGAGTCGGAGTCACCTAGTGCAG,7340 fluorescence intensity (a.u.)
14,CATATATATATATATAGACTTTGTATACGTGTATACAAAGCGGAGTCACCTAGTGCAG,3860 fluorescence intensity (a.u.)
15,AGCTGGTTATAATATGGACAAAATGCTGAATTGTTTGGCACGGAGTCACCTAGTGCAG,31500 fluorescence intensity (a.u.)
16,GGACTCGTCCAGCACGACGCTGATGGATCTCATCACCTCGCGGAGTCACCTAGTGCAG,3630 fluorescence intensity (a.u.)
17,ATGCTGCCGACCGCCGCTGCCAACAAAGGAAGATAGAGTACGGAGTCACCTAGTGCAG,3870 fluorescence intensity (a.u.)
18,CCGTGCCCAGCCATAGGCCCAGGCATGGCCCAATAGTCATCGGAGTCACCTAGTGCAG,3280 fluorescence intensity (a.u.)
19,AGCGCCCAAGGTGGAGACGTGGAGTTGGCTGTGGGAGCAGCGGAGTCACCTAGTGCAG,4240 fluorescence intensity (a.u.)
20,GGACCGTTGATTATACGTGGCACATCGCAGGTACGGTCCCCGGAGTCACCTAGTGCAG,9800 fluorescence intensity (a.u.)
21,ATCGCACTTCACGCGCCAAATTAGTTAGTCGAAGCGTCAACGGAGTCACCTAGTGCAG,3180 fluorescence intensity (a.u.)

row,Sequence,binding signal
1,AACTGCAACTAATAAAGCCAGGTCCGGTCCCACGTCCCAGCGGAGTCACCTAGTGCAG,3260 fluorescence intensity (a.u.)
2,GGCCACGTCAATATGTCTTCACGTGTGTTTTCTCCTTTAACGGAGTCACCTAGTGCAG,10400 fluorescence intensity (a.u.)
3,GGGCGTGCTCCGTGTAGGTGACGGCGTCGCGGATGACGTTCGGAGTCACCTAGTGCAG,5500 fluorescence intensity (a.u.)
4,TCTATCTGGCTTCTGACATCACACTCACCTAAATGTTGTTCGGAGTCACCTAGTGCAG,3660 fluorescence intensity (a.u.)
5,AGCCACAAGATCAATACAAGCCAACATGCCCAACACACGTCGGAGTCACCTAGTGCAG,4330 fluorescence intensity (a.u.)
6,AGCGATCGGCTTGCTGACTCGGATCCACCCGCTTCTCTGACGGAGTCACCTAGTGCAG,14000 fluorescence intensity (a.u.)
7,TAGTGACTAGTGATCACAGATCAGTACTATATAAAAGAGTCGGAGTCACCTAGTGCAG,13700 fluorescence intensity (a.u.)
8,GCCTCGAGGGAGTCCCTGAGTGCGTGGACAACGTCTCCGACGGAGTCACCTAGTGCAG,5100 fluorescence intensity (a.u.)
9,GATCCAAGAGTGGAGAAGGAGAGGGGTGGGGAGCCGGCGACGGAGTCACCTAGTGCAG,3900 fluorescence intensity (a.u.)
10,CCCACACCTGACAACCAATCACGTCTTGGTGGCCCACATCCGGAGTCACCTAGTGCAG,16900 fluorescence intensity (a.u.)
11,CAGCTTCCGCAGGACAGCGCGAATGTCACCGACGGCTCAGCGGAGTCACCTAGTGCAG,3660 fluorescence intensity (a.u.)
12,TGGATAAGGATGTGTGAGACGTGTGATCTTTACTTGTTGGCGGAGTCACCTAGTGCAG,3980 fluorescence intensity (a.u.)
13,TTTTCTTAAAGAGATTTCTTATACGATTCCTTCTATATTTCGGAGTCACCTAGTGCAG,10600 fluorescence intensity (a.u.)
14,CCACGCCTCCACCACCTCCGCATCACTAGCAAGCGCAAGCCGGAGTCACCTAGTGCAG,3610 fluorescence intensity (a.u.)
15,TGCGGGCCACCATGCTAGCTAGTTTCCCTAAAAGAATATTCGGAGTCACCTAGTGCAG,16500 fluorescence intensity (a.u.)
16,AGTTGATCGCGGTCAAATCGTCACGTTAGTTGAACCCGGTCGGAGTCACCTAGTGCAG,3340 fluorescence intensity (a.u.)
17,CGCTGACTTAGTTGCCACGTCAGACAAAACTGAGGTCAAACGGAGTCACCTAGTGCAG,15100 fluorescence intensity (a.u.)
18,AGTATATATATGGCCCAGCTAAATCTTCTGATAGGTGATGCGGAGTCACCTAGTGCAG,3220 fluorescence intensity (a.u.)
19,CTATCCAAGAACAGCTTCATTTACAGAAACATTACCTACACGGAGTCACCTAGTGCAG,3150 fluorescence intensity (a.u.)
20,GGCGGCGGCGGCGGGGCGGCGTGGCGCCGAGGGAGGGGAACGGAGTCACCTAGTGCAG,4760 fluorescence intensity (a.u.)
21,CTATCATATGTGTCACGTCATCTGGCTGTGGTACTACTGCCGGAGTCACCTAGTGCAG,9860 fluorescence intensity (a.u.)

# Fetched one by one from the list above, 2 records:
row,Sequence,binding signal
19,CTATCCAAGAACAGCTTCATTTACAGAAACATTACCTACACGGAGTCACCTAGTGCAG,3150 fluorescence intensity (a.u.)
9,GATCCAAGAGTGGAGAAGGAGAGGGGTGGGGAGCCGGCGACGGAGTCACCTAGTGCAG,3900 fluorescence intensity (a.u.)
